Measured values from PMC8008631.
These are yes or no findings as the source states them, for the method shown. Binding seen in cells or lysates may run through a third protein. Some binding calls cover weakened binding; strength is not graded here. For part of these data: Tags and fused reporters may be left off the sequences shown. Values belong to the molecule of their own block, whether it stands above or below them.

Columns and labels:
[1] = target: T1, RANK-V5 (affinity-tagged full-length RANK) (UniProt Q9Y6Q6); assay: co-IP; reverse IP: HEK293 cells transiently co-transfected with RANK-V5 and a HER2 form; IP of RANK-V5 with V5 antibody, protein A agarose; HER2 forms detected with 32H2 antibody
T1 sequence: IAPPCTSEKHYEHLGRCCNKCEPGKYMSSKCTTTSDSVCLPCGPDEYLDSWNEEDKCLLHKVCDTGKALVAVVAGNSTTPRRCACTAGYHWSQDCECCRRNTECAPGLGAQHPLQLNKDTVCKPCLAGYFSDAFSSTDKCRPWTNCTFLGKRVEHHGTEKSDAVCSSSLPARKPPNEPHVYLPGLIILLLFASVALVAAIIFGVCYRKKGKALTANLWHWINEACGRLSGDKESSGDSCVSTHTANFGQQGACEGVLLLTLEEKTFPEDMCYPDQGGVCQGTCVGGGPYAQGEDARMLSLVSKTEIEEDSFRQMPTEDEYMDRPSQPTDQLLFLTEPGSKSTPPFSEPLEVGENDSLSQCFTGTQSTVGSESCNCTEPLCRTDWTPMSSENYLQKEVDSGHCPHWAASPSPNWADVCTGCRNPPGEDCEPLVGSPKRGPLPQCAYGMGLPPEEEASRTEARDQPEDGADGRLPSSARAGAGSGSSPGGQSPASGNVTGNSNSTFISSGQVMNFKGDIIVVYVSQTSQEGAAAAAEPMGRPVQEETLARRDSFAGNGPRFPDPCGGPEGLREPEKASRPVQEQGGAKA

[2] = target: FLAG-HER2 (affinity-tagged full-length HER2) (human) (UniProt P04626); assay: co-IP; HEK293 cells transiently co-transfected with RANK-V5 and a HER2 form; lysis in 20 mM Tris-HCl pH 7.4, 137 mM NaCl, 2 mM EDTA, 10% glycerol, 1% NP-40; IP of the HER2 form with anti-FLAG or anti-HA (control IgG), protein A agarose; RANK detected with V5 antibody
[3] = target: endogenous HER2 (SKBR3 cells) (human (endogenous in SKBR3)) (UniProt P04626); assay: co-IP; endogenous proteins in SKBR3 cells; IP of HER2 with trastuzumab (Herceptin) or control IgG; RANK detected by Western blot

- binding [1]: binds
Molecule: FLAG-HER2 (affinity-tagged full-length HER2) (from UniProt P04626 23-1255) (receptor)

- binding [2]: binds
B1: RANK-V5 (affinity-tagged full-length RANK) (receptor, UniProt Q9Y6Q6 30-616)
chain: IAPPCTSEKHYEHLGRCCNKCEPGKYMSSKCTTTSDSVCLPCGPDEYLDSWNEEDKCLLHKVCDTGKALVAVVAGNSTTPRRCACTAGYHWSQDCECCRRNTECAPGLGAQHPLQLNKDTVCKPCLAGYFSDAFSSTDKCRPWTNCTFLGKRVEHHGTEKSDAVCSSSLPARKPPNEPHVYLPGLIILLLFASVALVAAIIFGVCYRKKGKALTANLWHWINEACGRLSGDKESSGDSCVSTHTANFGQQGACEGVLLLTLEEKTFPEDMCYPDQGGVCQGTCVGGGPYAQGEDARMLSLVSKTEIEEDSFRQMPTEDEYMDRPSQPTDQLLFLTEPGSKSTPPFSEPLEVGENDSLSQCFTGTQSTVGSESCNCTEPLCRTDWTPMSSENYLQKEVDSGHCPHWAASPSPNWADVCTGCRNPPGEDCEPLVGSPKRGPLPQCAYGMGLPPEEEASRTEARDQPEDGADGRLPSSARAGAGSGSSPGGQSPASGNVTGNSNSTFISSGQVMNFKGDIIVVYVSQTSQEGAAAAAEPMGRPVQEETLARRDSFAGNGPRFPDPCGGPEGLREPEKASRPVQEQGGAKA

- binding [3]: binds
B2: endogenous RANK (SKBR3 cells) (receptor, UniProt Q9Y6Q6 30-616)
chain: IAPPCTSEKHYEHLGRCCNKCEPGKYMSSKCTTTSDSVCLPCGPDEYLDSWNEEDKCLLHKVCDTGKALVAVVAGNSTTPRRCACTAGYHWSQDCECCRRNTECAPGLGAQHPLQLNKDTVCKPCLAGYFSDAFSSTDKCRPWTNCTFLGKRVEHHGTEKSDAVCSSSLPARKPPNEPHVYLPGLIILLLFASVALVAAIIFGVCYRKKGKALTANLWHWINEACGRLSGDKESSGDSCVSTHTANFGQQGACEGVLLLTLEEKTFPEDMCYPDQGGVCQGTCVGGGPYAQGEDARMLSLVSKTEIEEDSFRQMPTEDEYMDRPSQPTDQLLFLTEPGSKSTPPFSEPLEVGENDSLSQCFTGTQSTVGSESCNCTEPLCRTDWTPMSSENYLQKEVDSGHCPHWAASPSPNWADVCTGCRNPPGEDCEPLVGSPKRGPLPQCAYGMGLPPEEEASRTEARDQPEDGADGRLPSSARAGAGSGSSPGGQSPASGNVTGNSNSTFISSGQVMNFKGDIIVVYVSQTSQEGAAAAAEPMGRPVQEETLARRDSFAGNGPRFPDPCGGPEGLREPEKASRPVQEQGGAKA
